# Library screening results

From ChEMBL document CHEMBL3988442, “University of Dundee, Small-Polar-MMV Screening Library” (2021).

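Viability assay of Plasmodium falciparum sporozoites; the read-out is not stated. The concentration is filed as 10 mM, unlikely as a test dose, so the dose is not known. Higher reads as lower viability (inferred: compounds with an IC50 in retests scored well above the rest). Strong results were mostly tested again. Size under these conditions: about 34,000 compounds, about 280 of them at 50% or above in at least one test.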

Each number is a percent effect as filed. The controls that fix the scale are not given in the record; negative values are as filed. The compounds are a random part of those screened. Two or more numbers in one place are separate tests of the same structure; such repeats can differ widely.

With O=S(=O)(Nc1cn[nH]c1)c1ccc(Br)c(F)c1 the screen gave 0.7786%.
With CN(Cc1ccc(F)cc1)C(=O)CN1CCOC(Cn2cncn2)C1 (configuration not stated) the screen gave -6.003%.
With O=C(c1cccn1Cc1cccs1)N1CCSCC1 the screen gave 9.171%.
With CC(C(=O)N1CCCN(Cc2ccc(C#N)cc2)CC1)n1ccnc1 (configuration not stated) the screen gave 9.728%.
With Cc1nc(CN2CCCC(N(C)CC(=O)Nc3cccnc3)C2)no1 (configuration not stated) the screen gave 4.459%.
With CC(CNC(=O)c1ccco1)N1CCc2sccc2C1 (configuration not stated) the screen gave -6.551% and -13.47%.
With CN1CC(c2cc(O)nc(NCc3ccccc3Cl)n2)CC1=O (configuration not stated) the screen gave 7.655%.
With COCC(=O)N1CCCC1c1cc(N2CCN(C(C)=O)CC2)cc(C)n1 (configuration not stated) the screen gave 5.523%.
With O=C(NCC(F)F)N1CCC(n2ccc(C(F)(F)F)n2)CC1 the screen gave -10.04%.
With CO[C@H]1C(=O)N(C)C2(CCNCC2)[C@@H]1C(=O)Nc1ccccc1 the screen gave -18.53%.
With CN(C)C(=O)C1CCN(Cn2nc(-c3ccc(F)cc3)oc2=O)CC1 the screen gave 10.28%.
With CCOCCN1Cc2ncn(C)c2C(COCC2CCOCC2)C1.O=C(O)C(F)(F)F.O=C(O)C(F)(F)F (configuration not stated) the screen gave 10.1%.
With Cc1cc(-c2cnc(N3CCNC(=O)C3)nc2-c2ccc(C)o2)on1 the screen gave -17.19%.
With c1cnnc(N2CCCC2CNCc2ccsc2)c1 (configuration not stated) the screen gave -0.8052%.
With Cc1ccc(CN2CCCC3(CCN(Cc4ccc(C)o4)C3)C2)o1 (configuration not stated) the screen gave -1.128%.
With COc1cc(C(=O)NC(CC(=O)O)c2cccs2)cc(Cl)c1OC (configuration not stated) the screen gave 4.535%.
With CC(C)c1noc(CCC(=O)NCC2CCOC2)n1 (configuration not stated) the screen gave -15.93%.
With CN(C(=O)Cc1ccc(NC(=O)NC2CCC2)cc1)c1ccccc1 the screen gave -6.201%.
With CN(C)c1ncc(-c2cncnc2)c(C2CNCCO2)n1.Cl (configuration not stated) the screen gave -2.536%.
With Cc1cc(CNC(=O)CC2CN(C(=O)OC(C)(C)C)C2)ccc1F the screen gave -18.97% and -15.1%.
With Cc1nc(C)n(CC2CN(Cc3noc(C4CC4)n3)CCO2)n1 (configuration not stated) the screen gave -1.213%.
With CCN1CCN(C)C(=O)C12CCN(C(=O)Cc1ccccn1)CC2.O=C(O)C(F)(F)F the screen gave 6.764%.
With CC(=O)N1CCCC(c2cccc(-n3ccnc3)n2)C1 (configuration not stated) the screen gave 2.176%.
With CCc1ccsc1C(=O)N1CCN(CC(N)=O)CC1 the screen gave 7.63%.
With CC/C=C(/C)C(=O)N1CCN(C2=NCC(C)S2)CC1 (configuration not stated) the screen gave -3.73%.
With COc1cc2ccn(CCCO)c(=O)c2cc1F the screen gave -11.9%.
With CN1CCCC1(CCCc1cccnc1)C(=O)NCc1nccn1C (configuration not stated) the screen gave 0.6113%.
With O=C(NCC1CC1)C1CN(C(=O)c2ccncc2)CC12CCOCC2 (configuration not stated) the screen gave 3.911%.
With COCCN1CC(=O)c2sc(NCc3ccccc3)nc2C1 the screen gave 2.456%.
With Cc1nc(C2CCCN2C(=O)c2csc3c2CCCC3)no1 (configuration not stated) the screen gave 17.38%.
With CCn1ncc2c1C(COC)CN(Cc1cccnc1)C2.O=C(O)C(F)(F)F.O=C(O)C(F)(F)F.O=C(O)C(F)(F)F (configuration not stated) the screen gave 8.333%.
With Cc1nc(CCNCc2c(C)nn(C)c2N2CCOCC2)cs1 the screen gave 5.197%.
With CCCN(CCc1ccccn1)C(=O)Cn1cnnn1 the screen gave 12.89%.
With OCC1CCCN1c1cc(NCCc2ccccn2)ncn1 (configuration not stated) the screen gave 91.05% and 79.59%.
With COCCNc1ccc(CC2CCCN(C3CCOCC3)C2)nn1 (configuration not stated) the screen gave -1.393%.
With O=C(O)C(F)(F)F.O=C(O)C(F)(F)F.O=C1NC2(CCN(Cc3ccoc3)CC2)CC1c1ccncc1 (configuration not stated) the screen gave -0.2433%.
With COc1ccccc1C1(C(=O)NCCN2CCOCC2)CCOCC1 the screen gave 13.28%.
With O=C(Cc1ccon1)N1CCc2cc(Br)sc2C1 the screen gave 0.5263%.
With c1ccc2cc(OCCN3CCn4c(nnc4C4CC4)C3)ccc2c1 the screen gave 12.01%.
With c1ccc(-c2nccc(N3CCc4c(ncn4C4CC4)C3)n2)cc1 the screen gave 47.31% and 54.94% and 44.8%.
With COc1ccc(NC(=O)CN2CCCCC2C2OCCO2)cc1 (configuration not stated) the screen gave -0.3293%.
With O=C(NCC1CC2(CO1)CN(c1nncs1)C2)C1CCC1 (configuration not stated) the screen gave -2.627%.
With CCN(CC)C(=O)Nc1cc2c(cc1SC)OCCO2 the screen gave 23% and 9.01% and 4.339%.
With Cc1nnc(N2CCC(NS(C)(=O)=O)CC2)c(C#N)c1C the screen gave -4.682%.
With CCc1noc(C2CCCCN2C(=O)c2ccn(C3CCCC3)n2)n1 (configuration not stated) the screen gave -4.605%.
With Cc1nc(Nc2ncccn2)cc(C2CCCN2C)n1 (configuration not stated) the screen gave 1.895%.
With COCc1ccccc1C(=O)N1CCCC(c2cc(C)[nH]n2)C1 (configuration not stated) the screen gave 10.56%.
With Nc1cc2c(nn1)CCN(C(=O)CCCC1CCCCC1)C2 the screen gave -8.84%.
With CC(C)Cn1cc(NCc2cscn2)cn1 the screen gave 0.6519%.
With Cc1cc(CN(C)C(=O)C(c2ccccc2F)N(C)C)ccn1 (configuration not stated) the screen gave -18.62%.
With CC(C)C(NC(=O)Cn1ccc(=O)n(C)c1=O)c1ccc(F)cc1 (configuration not stated) the screen gave -2.311%.
With O=C(CC1CC1)N1CCC2(CCCN(CCOc3ccccc3)C2)C1.O=C(O)C(F)(F)F (configuration not stated) the screen gave 3.249%.
With O=C(c1cccs1)N1CCc2ncnc(C3CCOC3)c2CC1 (configuration not stated) the screen gave -2.691%.
With CC(=O)N1CC(C(=O)N2CCCC(Cn3ccnc3C)C2)C1 (configuration not stated) the screen gave 1.075%.
With Cc1ccc(NC2CCN(C(=O)Cn3nc(C)cc3C)CC2)nn1 the screen gave -11.05%.

For reference, 6 entries once more:

compound	effect
CO[C@H]1C(=O)N(C)C2(CCNCC2)[C@@H]1C(=O)Nc1ccccc1	-18.53
COc1ccc(NC(=O)CN2CCCCC2C2OCCO2)cc1 (configuration not stated)	-0.3293
CC/C=C(/C)C(=O)N1CCN(C2=NCC(C)S2)CC1 (configuration not stated)	-3.73
Cc1nc(C2CCCN2C(=O)c2csc3c2CCCC3)no1 (configuration not stated)	17.38
Cc1cc(CN(C)C(=O)C(c2ccccc2F)N(C)C)ccn1 (configuration not stated)	-18.62
c1cnnc(N2CCCC2CNCc2ccsc2)c1 (configuration not stated)	-0.8052